Reference: US20090281166A1, “Treatment of Cancer by Inhibition of HSP27” (THE UNIVERSITY OF BRITISH COLUMBIA, priority 2008, published 2009)
Results are given in words; binding and its absence hold for the method and conditions named. In cells and extracts the contact can be indirect. Some entries that bind do so weakly or less than the wild type.

Sequences of proteins named here, by UniProt entry; tags and fusion partners are left off.
UniProt P31749: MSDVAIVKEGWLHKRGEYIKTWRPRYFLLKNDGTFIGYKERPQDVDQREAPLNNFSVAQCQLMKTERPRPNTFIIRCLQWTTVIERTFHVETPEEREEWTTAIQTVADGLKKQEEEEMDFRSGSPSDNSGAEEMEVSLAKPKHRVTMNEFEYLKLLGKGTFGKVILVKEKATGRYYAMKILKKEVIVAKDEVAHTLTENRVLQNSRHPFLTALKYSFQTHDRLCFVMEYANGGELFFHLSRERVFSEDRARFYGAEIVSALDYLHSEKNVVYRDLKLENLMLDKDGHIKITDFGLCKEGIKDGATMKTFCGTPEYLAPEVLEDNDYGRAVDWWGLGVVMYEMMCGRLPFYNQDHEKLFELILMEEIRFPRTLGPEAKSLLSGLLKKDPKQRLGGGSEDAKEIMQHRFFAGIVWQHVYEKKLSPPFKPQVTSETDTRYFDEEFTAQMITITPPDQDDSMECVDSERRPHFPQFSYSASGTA
UniProt P04792: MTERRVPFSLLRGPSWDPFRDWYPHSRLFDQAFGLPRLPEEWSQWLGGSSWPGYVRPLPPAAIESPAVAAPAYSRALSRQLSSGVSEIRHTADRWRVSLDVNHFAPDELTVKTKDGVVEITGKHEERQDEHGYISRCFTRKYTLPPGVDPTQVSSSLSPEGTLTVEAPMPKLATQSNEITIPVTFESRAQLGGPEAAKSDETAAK

Molecular target: Akt (UniProt P31749)
Test: co-immunoprecipitation from LNCaP cell lysates with Akt antibody, Western blot with Hsp27 antibody

binding: binds
Substance: heat shock protein 27 (Hsp27) (from UniProt P04792 1-205)
